Data as given in PubChem BioAssay AID328 (DTP/NCI, 2004).
The list shows only some results of the screen, not a fair sample: it gathers tests that were run many times, whatever their T/C, doses with no T/C, and many T/C values between a quarter and a half above the control. Further doses and runs are listed elsewhere. T/C: endpoint of the treated group in % of that of the vehicle group. Some doses have a count of surviving animals in place of a T/C: the source holds a T/C of zero for them, seemingly a mark for toxic or unscored doses. Some doses without a T/C left all or most animals alive at the check, yet need not have been tolerated: the source hardly ever lists a survival T/C far under the control, and the zero likely stands for such cases as well. Survivors were counted at the toxicity check, usually on the fifth day, unless a day is given; later deaths do not show. Schedules are NCI's codes, taken here to give the interval after Q, in days (D) or hours (H), and the number of doses after X. For survival time, the PubChem record calls one and a half times the control and up active, and a quarter to a half above the control has no call in these data; cut-offs in other NCI protocols can differ. Some entries were tested several times; the values are given in rising order. Some T/C values are followed by the survivors on the day toxicity was checked, most often the fifth; where none is given, no animal had died by that day. Positions of bridges follow the written chain, without caps; N, C: chain ends. Non-standard residues stand in square brackets, D forms with d. Residues, ends and D or L forms follow the SMILES beside them. Aib = CC(C)(N)C(=O)O

System: BDF1 mice, P388 leukemia ip, median survival T/C
Assay: NCI In Vivo Anticancer Drug Screen. Data for tumor model P388 Leukemia (intraperitoneal) in B6D2F1 (BDF1) mice
Settings: T/C endpoint: median survival time, higher T/C = longer survival
Procedure, shortened: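 T/C = treated-group survival ÷ vehicle-control survival; tumour transplanted into mice before dosing.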

[1] = dose: 25.0 mg/kg/injection, schedule: Q04DX003 (ip), vehicle: saline
[2] = dose: 50.0 mg/kg/injection, schedule: Q01DX009 (ip), vehicle: saline
[3] = dose: 50.0 mg/kg/injection, schedule: Q04DX003 (ip), vehicle: saline
[4] = dose: 400.0 mg/kg/injection, schedule: Q04DX003 (ip), vehicle: saline with Tween-80
[5] = dose: 400.0 mg/kg/injection, schedule: Q04DX003 (ip), vehicle: Klucel (hydroxypropylcellulose) (HPC)
[6] = dose: 50.0 mg/kg/injection, schedule: Q01DX009 (ip), vehicle: saline with Tween-80
[7] = dose: 100.0 mg/kg/injection, schedule: Q01DX009 (ip), vehicle: saline
[8] = dose: 200.0 mg/kg/injection, schedule: Q04DX003 (ip), vehicle: Klucel (hydroxypropylcellulose) (HPC)
[9] = dose: 20.0 mg/kg/injection, schedule: Q01DX009 (ip), vehicle: saline

**Q.** What does the source list for CC(C)CC1NC(=O)CNC(=O)C(C)(C)NC(=O)C(C(C)C)NC(=O)C(C)(C)NC(=O)C(CCC(N)=O)NC(=O)C(C)NC(=O)C(C)(C)NC(=O)C(C)NC(=O)C(C)(C)NC(=O)C2CCCN2C(=O)CCC(C(=O)NC(CCC(N)=O)C(=O)O)NC(=O)C(C)(C)NC(=O)C(C)(C)NC(=O)C(C(C)C)NC(=O)C2CCCN2C(=O)C(C)(C)NC1=O (configuration not stated) (P[Aib]A[Aib]AQ[Aib]V[Aib]GL[Aib]PV[Aib][Aib]EQ-OH; lactam N-17; configuration not given here)?
**A.** survivor count (dose: 5.0 mg/kg/injection, schedule: Q01DX009 (ip), vehicle: water): 3 of 6; survivor count (dose: 10.0 mg/kg/injection, schedule: Q01DX009 (ip), vehicle: water): 0 of 6

**Q.** Which results are given for Cc1cccnc1NC(=O)/C=C/C(=O)O?
**A.** survivor count [1]: 6 of 6; survivor count [2]: 6 of 6; survivor count [3]: 6 of 6

**Q.** Which survivor count (dose: 100.0 mg/kg/injection, schedule: Q04DX003 (ip), vehicle: saline with Tween-80) does the source give for C(=C\c1ccccc1)/C=N/N=C/C=C/c1ccccc1 here?
**A.** 6 of 6

**Q.** What about the survivor count (dose: 200.0 mg/kg/injection, schedule: Q04DX003 (ip), vehicle: saline with Tween-80) of the same molecule?
**A.** 6 of 6

**Q.** What about the survivor count [4] of the same molecule?
**A.** 6 of 6

**Q.** O=[N+]([O-])c1cccnc1Cl was tested. Which survivor count [5] did it give?
**A.** 0 of 6

**Q.** How did the survivor count [6] turn out when S=c1cc(-c2ccccc2)ss1 was run?
**A.** 2 of 6

**Q.** What about the survivor count (dose: 100.0 mg/kg/injection, schedule: Q01DX009 (ip), vehicle: saline with Tween-80) of the same molecule?
**A.** 6 of 6

**Q.** What about the survivor count (dose: 200.0 mg/kg/injection, schedule: Q01DX009 (ip), vehicle: saline with Tween-80) of the same molecule?
**A.** 6 of 6

**Q.** What about the survivor count (dose: 400.0 mg/kg/injection, schedule: Q01DX009 (ip), vehicle: saline with Tween-80) of the same molecule?
**A.** 4 of 6

**Q.** And the T/C [4]?
**A.** 130 % of control

**Q.** Which results are given for CCOC(=O)Nc1cc(NC(C)CCCN(CC)CC)c2ncc(-c3cc(OC)c(OC)c(OC)c3)nc2n1 (configuration not stated) (tested in a mixture with another compound)?
**A.** T/C [7]: 130 % of control [4 of 6 alive]; survivor count (dose: 200.0 mg/kg/injection, schedule: Q04DX003 (ip), vehicle: saline): 3 of 6

**Q.** How did the T/C (dose: 50.0 mg/kg/injection, schedule: Q01DX005 (ip), vehicle: saline) turn out when CN(CO)c1nc(N(C)CO)nc(N(C)CO)n1 was run?
**A.** 135 % of control

**Q.** How did the survivor count (dose: 100.0 mg/kg/injection, schedule: Q01DX009 (ip), vehicle: Klucel (hydroxypropylcellulose) (HPC)) turn out when Cc1c(C)c(CC#N)c(C)c(C)c1CC#N was run?
**A.** 6 of 6

**Q.** What about the survivor count [8] of the same molecule?
**A.** 6 of 6

**Q.** What about the survivor count (dose: 400.0 mg/kg/injection, schedule: Q01DX009 (ip), vehicle: Klucel (hydroxypropylcellulose) (HPC)) of the same molecule?
**A.** 6 of 6

**Q.** And the survivor count [5]?
**A.** 6 of 6

**Q.** How did the survivor count [2] turn out when CC([OH2+])CNCCN.CC([OH2+])CNCCN.[Ni+2].[O-][Cl+3]([O-])([O-])[O-] (configuration not stated) was run?
**A.** 6 of 6

**Q.** And the survivor count [7]?
**A.** 3 of 6

**Q.** What about the survivor count (dose: 200.0 mg/kg/injection, schedule: Q01DX009 (ip), vehicle: saline) of the same molecule?
**A.** 0 of 6

**Q.** Which T/C (dose: 200.0 mg/kg/injection, schedule: Q01DX009 (sc), vehicle: olive oil, sesame oil, peanut oil) does the source give for Cc1cc(C(C)(C)CC(C)(C)C)ccc1O here?
**A.** 130 % of control

**Q.** How did the T/C (dose: 3.3 mg/kg/injection, schedule: Q04DX003 (ip), vehicle: saline) turn out when O=P(N1CCCC1)(N1CC1)N1CC1 was run?
**A.** 130 % of control

**Q.** And the T/C (dose: 5.0 mg/kg/injection, schedule: Q04DX003 (ip), vehicle: saline)?
**A.** 134 % of control [5 of 6 alive]

**Q.** And the T/C (dose: 10.0 mg/kg/injection, schedule: Q01DX009 (ip), vehicle: saline)?
**A.** 127 % of control

**Q.** What about the survivor count [9] of the same molecule?
**A.** 6 of 6

**Q.** And the T/C [1]?
**A.** 125 % of control

**Q.** What about the survivor count [3] of the same molecule?
**A.** 6 of 6

**Q.** What does the source list for COc1cc([C@@H]2c3cc4c(cc3C[C@H]3COC(=O)[C@@H]32)OCO4)cc(OC)c1OC?
**A.** T/C (dose: 2.5 mg/kg/injection, schedule: Q01DX010 (ip), vehicle: other): 127 % of control; T/C (dose: 5.0 mg/kg/injection, schedule: Q01DX010 (ip), vehicle: other): 136 % of control; T/C (dose: 5.0 mg/kg/injection, schedule: Q01DX010 (ip), vehicle: saline): 127 % of control; T/C (dose: 10.0 mg/kg/injection, schedule: Q01DX001 (ip), vehicle: other): 131 % of control; T/C (dose: 10.0 mg/kg/injection, schedule: Q01DX010 (ip), vehicle: saline): 131 and 145 % of control; survivor count (dose: 12.5 mg/kg/injection, schedule: Q01DX010 (ip), vehicle: carboxymethylcellulose (CMC)): 2 of 6; T/C (dose: 20.0 mg/kg/injection, schedule: Q01DX001 (ip), vehicle: other): 131 % of control; survivor count (dose: 20.0 mg/kg/injection, schedule: Q01DX010 (ip), vehicle: saline): 6 of 6; survivor count (dose: 25.0 mg/kg/injection, schedule: Q01DX010 (ip), vehicle: carboxymethylcellulose (CMC)): 2 of 6; survivor count (dose: 40.0 mg/kg/injection, schedule: Q01DX010 (ip), vehicle: saline): 6 of 6; survivor count (dose: 50.0 mg/kg/injection, schedule: Q01DX010 (ip), vehicle: carboxymethylcellulose (CMC)): 0 of 6; survivor count (dose: 80.0 mg/kg/injection, schedule: Q01DX010 (ip), vehicle: saline): 0 of 6

**Q.** With CC1(CCNC2CCCCC2)Oc2ccccc2O1 as the molecule, how does the survivor count (dose: 200.0 mg/kg/injection, schedule: Q04DX002 (ip), vehicle: Klucel (hydroxypropylcellulose) (HPC)) read?
**A.** 1 of 6

**Q.** Which survivor count [8] does the source give for Cc1c(C(=O)CCl)c(=O)n(-c2ccccc2)n1C here?
**A.** 4 of 6

**Q.** What about the survivor count [5] of the same molecule?
**A.** 0 of 6

**Q.** What does the source list for O=C(O)CNC(=O)CNC(=O)C(Br)Cc1ccccc1 (configuration not stated)?
**A.** survivor count [8]: 6 of 6; survivor count [5]: 6 of 6

**Q.** Which survivor count (dose: 100.0 mg/kg/injection, schedule: Q01DX009 (ip), vehicle: water) does the source give for O=CN1CCCC1C(=O)O (configuration not stated) here?
**A.** 6 of 6

**Q.** C[N+](C)(C)Cc1ccccc1/C(=N\O)c1ccccc1 was tested. Which survivor count [9] did it give?
**A.** 4 of 6

**Q.** For CC(N)C(=O)O (configuration not stated), which survivor count (dose: 400.0 mg/kg/injection, schedule: Q04DX003 (ip), vehicle: saline) is on record?
**A.** 6 of 6

**Q.** For OCC1OC(Nc2ccccc2/C=N\O)C(O)C1O (configuration not stated), which T/C [6] is on record?
**A.** 130 % of control
